In PubChem BioAssay AID192 (DTP/NCI, 2004):
The list shows only some results of the screen, not a fair sample: it gathers tests that were run many times, whatever their T/C, doses with no T/C, and many T/C values between a quarter and a half above the control. Further doses and runs are listed elsewhere. T/C gives the treated animals as a percentage of the vehicle group. Some entries give survivors of the animals treated and no T/C: the source holds a T/C of zero for them, seemingly a mark for toxic or unscored doses. Some survivor counts are full or nearly so, which does not show that the dose was tolerated: the source hardly ever lists a survival T/C far under the control, and the zero likely stands for such cases as well. Counts of survivors are from the toxicity check (mostly the fifth day) where no day follows; animals may have died later. Schedules are NCI's codes, taken here to give the interval after Q, in days (D) or hours (H), and the number of doses after X. Some entries were tested several times; the results are listed from low to high. Where survival is the endpoint, the PubChem record calls one and a half times the control and up active, and a quarter to a half above the control has no call in these data; cut-offs in other NCI protocols can differ.

Tested on: BDF1 mice, B16 melanoma ip, median survival T/C
Assay: NCI In Vivo Anticancer Drug Screen. Data for tumor model B16 Melanoma (intraperitoneal) in B6D2F1 (BDF1) mice
Details: T/C endpoint: median survival time, higher T/C = longer survival
Outline: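 Vehicle-treated animals serve as the reference (C); treated animals (T) are scored for survival or tumor size after tumor transplantation.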

[1] = dose: 6.25 mg/kg/injection, schedule: Q01DX009 (ip), vehicle: saline with Tween-80
[2] = dose: 12.5 mg/kg/injection, schedule: Q01DX009 (ip), vehicle: saline with Tween-80
[3] = dose: 25.0 mg/kg/injection, schedule: Q01DX009 (ip), vehicle: saline with Tween-80

Q: How did the survivor count (dose: 200.0 mg/kg/injection, schedule: Q01DX009 (ip), vehicle: saline with Tween-80) turn out when CN(C)c1c(-c2ccccc2)cc(-c2ccccc2)[nH]c1=O was run?
A: 9 of 10

Q: What about the survivor count (dose: 400.0 mg/kg/injection, schedule: Q01DX009 (ip), vehicle: saline with Tween-80) of the same molecule?
A: 10 of 10

Q: How did the survivor count (dose: 3.0 mg/kg/injection, schedule: Q01DX009 (ip), vehicle: Klucel (hydroxypropylcellulose) (HPC)) turn out when CC(=O)[O][Pb]([CH2]CC(C)C)([CH2]CC(C)C)[CH2]CC(C)C was run?
A: 0 of 10

Q: With O=C1C(=O)C(Cl)=C(Cl)C(Cl)=C1Cl as the molecule, how does the survivor count [1] read?
A: 6 of 6

Q: What about the survivor count [2] of the same molecule?
A: 6 of 6

Q: What about the survivor count [3] of the same molecule?
A: 6 of 6

Q: Which results are given for CCCCCCCC(=O)OCC(=O)[C@]1(O)Cc2c(O)c3c(c(O)c2[C@@H](OC2CC(N)C(O)C(C)O2)C1)C(=O)c1c(OC)cccc1C3=O (stereo partly specified)?
A: T/C (dose: 0.25 mg/kg/injection, schedule: Q01DX009 (ip), vehicle: saline with Tween-80): 145 % of control; T/C (dose: 0.31 mg/kg/injection, schedule: Q01DX001 (ip), vehicle: water): 136 % of control; T/C (dose: 0.5 mg/kg/injection, schedule: Q01DX009 (ip), vehicle: saline with Tween-80): 136 % of control; T/C (dose: 0.63 mg/kg/injection, schedule: Q01DX001 (ip), vehicle: water): 143 % of control; survivor count (dose: 4.0 mg/kg/injection, schedule: Q01DX009 (ip), vehicle: saline with Tween-80): 10 of 10; T/C (dose: 5.0 mg/kg/injection, schedule: Q01DX001 (ip), vehicle: water): 127 % of control; survivor count (dose: 8.0 mg/kg/injection, schedule: Q01DX009 (ip), vehicle: saline with Tween-80): 10 of 10; T/C (dose: 10.0 mg/kg/injection, schedule: Q01DX001 (ip), vehicle: water, evaluated on day 45): 129 % of control; T/C (dose: 10.0 mg/kg/injection, schedule: Q01DX001 (ip), vehicle: water, evaluated on day 60): 134 % of control; survivor count (dose: 20.0 mg/kg/injection, schedule: Q01DX001 (ip), vehicle: water): 10 of 10; survivor count (dose: 40.0 mg/kg/injection, schedule: Q01DX001 (ip), vehicle: water): 4 of 10 and 9 of 10; T/C (dose: 864.0 micrograms/kg/injection, schedule: Q01DX004 (ip), vehicle: other): 126 % of control; survivor count (dose: 6670.0 micrograms/kg/injection, schedule: Q01DX004 (ip), vehicle: other): 10 of 10

Q: Which survivor count (dose: 400.0 mg/kg/injection, schedule: Q01DX009 (ip), vehicle: Klucel (hydroxypropylcellulose) (HPC)) does the source give for CC(=N\O)/C(C)=N/O.CC(=N\O)/C(C)=N/O.[Fe].c1c[nH]cn1.c1c[nH]cn1 here?
A: 7 of 10

Q: Which T/C (dose: 25.0 mg/kg/injection, schedule: Q01DX009 (ip), vehicle: Klucel (hydroxypropylcellulose) (HPC)) does the source give for Cc1c2cccc(F)c2c[n+]2ccccc12 here?
A: 128 % of control

Q: And the survivor count (dose: 50.0 mg/kg/injection, schedule: Q01DX009 (ip), vehicle: Klucel (hydroxypropylcellulose) (HPC))?
A: 5 of 10

Q: What about the survivor count (dose: 100.0 mg/kg/injection, schedule: Q01DX009 (ip), vehicle: Klucel (hydroxypropylcellulose) (HPC)) of the same molecule?
A: 0 of 10

Q: With CN(C)c1ccc2c(c1)C(Br)c1ccccc1-2 (stereo unspecified) as the molecule, how does the survivor count (dose: 50.0 mg/kg/injection, schedule: Q04DX003 (ip), vehicle: Klucel (hydroxypropylcellulose) (HPC)) read?
A: 10 of 10

Q: And the survivor count (dose: 100.0 mg/kg/injection, schedule: Q04DX003 (ip), vehicle: Klucel (hydroxypropylcellulose) (HPC))?
A: 10 of 10

Q: What about the survivor count (dose: 200.0 mg/kg/injection, schedule: Q04DX003 (ip), vehicle: Klucel (hydroxypropylcellulose) (HPC)) of the same molecule?
A: 8 of 10

Q: With Cc1cn(C2CC(O)C(CO)O2)c(=O)[nH]c1=O (stereo unspecified) as the molecule, how does the survivor count (dose: 25.0 mg/kg/injection, schedule: Q01DX009 (ip), vehicle: saline) read?
A: 10 of 10

Q: What about the survivor count (dose: 50.0 mg/kg/injection, schedule: Q01DX009 (ip), vehicle: saline) of the same molecule?
A: 10 of 10

Q: And the survivor count (dose: 400.0 mg/kg/injection, schedule: Q01DX009 (ip), vehicle: saline)?
A: 9 of 10

Q: Which survivor count [1] does the source give for CSc1ccc2c(c1)C(N1CCN(C)CC1)Cc1ccccc1S2 (stereo unspecified) here?
A: 9 of 10

Q: What about the survivor count [2] of the same molecule?
A: 6 of 10

Q: What about the survivor count [3] of the same molecule?
A: 2 of 10

Q: And the survivor count (dose: 50.0 mg/kg/injection, schedule: Q01DX009 (ip), vehicle: saline with Tween-80)?
A: 0 of 10

Q: Which T/C (dose: 400.0 micrograms/kg/injection, schedule: Q01DX009 (ip), vehicle: saline) does the source give for CN(CCO)C1=C(N2CC2)C(=O)C(N(C)CCO)=C(N2CC2)C1=O here?
A: 130 % of control

Q: And the T/C (dose: 800.0 micrograms/kg/injection, schedule: Q01DX009 (ip), vehicle: saline)?
A: 147 % of control

Q: For Cl[C](Cl)(Cl)[Hg][c]1ccccc1, which survivor count (dose: 0.75 mg/kg/injection, schedule: Q01DX009 (ip), vehicle: saline) is on record?
A: 10 of 10

Q: And the survivor count (dose: 1.5 mg/kg/injection, schedule: Q01DX009 (ip), vehicle: saline with Tween-80)?
A: 10 of 10

Q: What about the survivor count (dose: 3.0 mg/kg/injection, schedule: Q01DX009 (ip), vehicle: saline with Tween-80) of the same molecule?
A: 10 of 10

Q: And the survivor count (dose: 6.0 mg/kg/injection, schedule: Q01DX009 (ip), vehicle: saline with Tween-80)?
A: 10 of 10

Q: What about the survivor count (dose: 12.0 mg/kg/injection, schedule: Q01DX009 (ip), vehicle: saline with Tween-80) of the same molecule?
A: 9 of 10

Q: And the survivor count (dose: 24.0 mg/kg/injection, schedule: Q01DX009 (ip), vehicle: saline with Tween-80)?
A: 3 of 10
